Measured values published in paper PMC12651396.
These are yes or no findings as the source states them, for the method shown. Binding seen in cells or lysates may run through a third protein. Here binding means that the protein was enriched with, or labelled near, the bait; the list need not be complete. Sequences can lack the tags named with a protein.

The chains behind the UniProt entries cited, without tags or fusion partners.
UniProt P67809: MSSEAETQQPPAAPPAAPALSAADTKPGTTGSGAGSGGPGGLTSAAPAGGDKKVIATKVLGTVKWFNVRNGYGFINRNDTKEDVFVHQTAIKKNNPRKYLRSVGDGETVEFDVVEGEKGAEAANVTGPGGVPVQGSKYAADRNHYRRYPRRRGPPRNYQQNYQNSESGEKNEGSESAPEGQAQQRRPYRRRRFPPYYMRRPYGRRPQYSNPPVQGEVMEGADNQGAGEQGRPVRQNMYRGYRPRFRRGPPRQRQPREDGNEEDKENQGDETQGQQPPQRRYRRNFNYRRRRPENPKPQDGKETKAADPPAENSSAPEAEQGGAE

Target: T1, FLAG-tagged fibroblast growth factor 12 (FGF12) (human) (UniProt P61328)
T1 sequence: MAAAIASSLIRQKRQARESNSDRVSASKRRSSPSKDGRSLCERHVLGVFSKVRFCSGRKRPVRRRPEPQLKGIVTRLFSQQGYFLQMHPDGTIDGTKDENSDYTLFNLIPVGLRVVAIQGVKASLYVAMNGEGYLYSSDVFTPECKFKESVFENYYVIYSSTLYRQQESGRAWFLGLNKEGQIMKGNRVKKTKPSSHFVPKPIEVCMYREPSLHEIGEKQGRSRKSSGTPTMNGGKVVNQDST
Test: affinity purification with mass spectrometry; lysates of LNCaP FGF12 and control cells; anti-Flag antibody or normal IgG, Protein A/G agarose beads; eluted proteins analysed by mass spectrometry, triplicate repeats

binding: binds
Substance: Y-box binding protein 1 (YB1) (from UniProt P67809 1-324)
